From US20190350938A1 (BROAD INSTITUTE, published 2019)
Changes are numbered by the printed parent chain. These are yes or no findings as the source states them, for the method shown. For part of these data: Binding seen in cells or lysates may run through a third protein. Some results given as binding are weak or reduced against the parent protein; the word gives no strength. Where a sequence is shown, tags or fusion partners need not be part of it.

Legend:
SLC16A11^REF-HA (human) [1] = biological target: T1, SLC16A11^REF-HA (human) (UniProt Q8NCK7); experiment: co-immunoprecipitation of BSG-V5 and SLC16A11-HA (FIG. 5D bottom)
T1 sequence: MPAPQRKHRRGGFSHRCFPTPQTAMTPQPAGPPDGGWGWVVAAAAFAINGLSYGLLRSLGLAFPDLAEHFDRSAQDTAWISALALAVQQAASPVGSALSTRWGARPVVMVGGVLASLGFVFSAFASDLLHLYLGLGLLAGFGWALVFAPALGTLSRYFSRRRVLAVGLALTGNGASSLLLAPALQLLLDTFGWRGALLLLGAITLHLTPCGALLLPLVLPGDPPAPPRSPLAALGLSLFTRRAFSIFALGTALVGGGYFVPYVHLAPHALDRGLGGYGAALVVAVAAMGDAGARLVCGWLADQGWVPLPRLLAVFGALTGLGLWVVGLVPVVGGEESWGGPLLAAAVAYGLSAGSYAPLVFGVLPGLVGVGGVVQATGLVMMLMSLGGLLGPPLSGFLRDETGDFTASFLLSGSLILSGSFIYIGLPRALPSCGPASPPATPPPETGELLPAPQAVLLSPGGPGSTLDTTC

SLC16A11^REF-HA (human) [2] = biological target: T1, SLC16A11^REF-HA (human); experiment: reciprocal co-immunoprecipitation in HEK293T, Western blot (FIG. 5D bottom, A and B)
SLC16A11^REF-V5 (human) [3] = biological target: T2, SLC16A11^REF-V5 (human) (UniProt Q8NCK7); experiment: co-immunoprecipitation, Western blot (FIG. 5B bottom)
T2 sequence: T1 sequence

SLC16A11^REF-V5 (human) [4] = biological target: T2, SLC16A11^REF-V5 (human); experiment: co-immunoprecipitation of HA- and V5-tagged SLC16A11
SLC16A11^REF-HA (human) [5] = biological target: T1, SLC16A11^REF-HA (human); experiment: co-immunoprecipitation in HEK293T, Western blot (FIG. 5D bottom, C)
[6] = biological target: T3, P2D SLC16A11^T2D-V5 (human); experiment: anti-V5 IP, iTRAQ quantitative MS, T2D risk vs WT (FIG. 5C top)
T3 sequence: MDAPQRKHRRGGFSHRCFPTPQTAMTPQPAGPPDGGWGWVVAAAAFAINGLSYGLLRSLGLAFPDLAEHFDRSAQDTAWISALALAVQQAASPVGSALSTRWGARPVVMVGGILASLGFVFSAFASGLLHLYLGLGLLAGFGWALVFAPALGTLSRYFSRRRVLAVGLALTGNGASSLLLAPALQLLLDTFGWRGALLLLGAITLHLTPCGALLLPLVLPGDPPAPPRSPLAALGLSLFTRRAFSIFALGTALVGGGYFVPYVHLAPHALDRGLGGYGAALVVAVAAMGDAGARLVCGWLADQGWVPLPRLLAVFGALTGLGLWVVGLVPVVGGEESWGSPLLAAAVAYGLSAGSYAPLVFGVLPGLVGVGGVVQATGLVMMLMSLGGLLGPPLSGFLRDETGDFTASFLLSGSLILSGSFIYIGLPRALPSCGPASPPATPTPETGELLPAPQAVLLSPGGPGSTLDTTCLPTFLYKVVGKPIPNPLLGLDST

SLC16A11^REF-HA (human) [7] = biological target: T1, SLC16A11^REF-HA (human); experiment: co-immunoprecipitation of endogenous BSG with SLC16A11-HA (FIG. 5D bottom, FIG. 5E top)
P2D SLC16A11^REF-V5 = biological target: T4, P2D SLC16A11^REF-V5 (human, UniProt Q8NCK7 1-447); experiment: IP of WT SLC16A11 vs empty vector control IP, quantitative MS
T4 construct: bait of the proteomics study; also called P2D WT SLC16A11; WT SLC16A11
T4 sequence: T1 sequence with P2D

SLC16A11^REF-HA (human) [8] = biological target: T1, SLC16A11^REF-HA (human); experiment: co-immunoprecipitation, Western blot (FIG. 5E top)

Measured: binding

BSG-V5 (from UniProt P35613 22-269)
binds: SLC16A11^REF-HA (human) [1] | SLC16A11^REF-HA (human) [2]

B1: SLC16A11^REF-HA (protein, not shown: small tags and cut ends)
chain: T1 sequence
binds: SLC16A11^REF-V5 (human) [3] | SLC16A11^REF-V5 (human) [4]

B2: Basigin (other, human, UniProt P35613-2 22-269, looked up)
chain: AAGTVFTTVEDLGSKILLTCSLNDSATEVTGHRWLKGGVVLKEDALPGQKTEFKVDSDDQWGEYSCVFLPEPMGTANIQLHGPPRVKAVKSSEHINEGETAMLVCKSESVPPVTDWAWYKITDSEDKALMNGSESRFFVSSSQGRSELHIENLNMEADPGQYRCNGTSSKGSDQAIITLRVRSHLAALWPFLGIVAEVLVLVTIIFIYEKRRKPEDVLDDDDAGSAPLKSSGQHQNDKGKNVRQRNSS
modifications: glycosylated (runs as multiple bands)
notes: Endogenous protein co-precipitated from HEK293T lysate; also called BSG; endogenous BSG
binds: SLC16A11^REF-HA (human) [5] | [6] | SLC16A11^REF-HA (human) [7] | P2D SLC16A11^REF-V5 | SLC16A11^REF-HA (human) [8]
